Experimental data as given in US20250367183A1, “SUBSTANCE FOR PROMOTING REGENERATION AND REPAIR OF ORGANS OF MAMMALS AND USE THEREOF” (INSTITUTE OF ZOOLOGY, CHINESE ACADEMY OF SCIENCES, priority 2022, published 2025).
For at least one compound, name, drawing or mass did not settle the structure.

Tested on: 2 mm diameter mouse ear hole
Assay: ear hole trauma mouse model, 2 mm diameter ear puncher
Assay type: in vivo, C57BL/6 mice
Details: ferroptosis/autophagy inhibitors 10-20 mg/kg, measured 21 days after damage, n≥8 (FIG. 3)

O=c1c2ccccc2[se]n1-c1ccccc1 [Ebselen]
healing of 2 mm ear hole: Neither inhibitors of ferroptosis nor autophagy could promote the healing of the ear hole like CHX
